## Assay results

Data taken from PubChem BioAssay AID1053133, deposited by Broad Institute (2014).

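Plate-reader measure of the Venus reporter marking one vaccinia stage in infected cells (the cell line is not named here); read time unknown. The test concentration is not given here. Percent change in Venus reporter signal; lower (more negative) values mean stronger inhibition of that viral stage.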

Values are in %. The controls that fix the scale are not given here. Common to all entries: measured here: Venus reporter, other viral stage. This is a side read-out of the assay, for part of the compounds, not drawn at random.

compound,activity change (Venus) (%)
C[C@@H]1CN([C@H](C)CO)C(=O)c2cc(NS(=O)(=O)c3ccc(F)cc3)ccc2O[C@@H](C)CCCCO[C@H]1CN(C)C(=O)C1CCCCC1,-33.82
Cc1ccc(-c2ccc3c(c2)O[C@H](CN(C)C(=O)Nc2ccc(F)cc2)[C@@H](C)CN([C@H](C)CO)S3(=O)=O)cc1,-40.44
C[C@H]1CCCCO[C@@H](CN(C)Cc2ccccc2)[C@@H](C)CN([C@@H](C)CO)C(=O)c2cc(NC(=O)c3ccncc3)ccc2O1,-46.1
COc1cccc(NC(=O)N(C)C[C@H]2Oc3cc(C#Cc4ccncc4)ccc3S(=O)(=O)N([C@H](C)CO)C[C@H]2C)c1,-26.36
C[C@@H]1CN([C@H](C)CO)S(=O)(=O)c2ccc(-c3cccc(C#N)c3)cc2O[C@@H]1CN(C)C(=O)c1ccccc1,-30.85
Cc1noc(C)c1S(=O)(=O)Nc1ccc2c(c1)C(=O)N([C@H](C)CO)C[C@@H](C)[C@H](CN(C)S(=O)(=O)c1ccc(F)cc1)OCCCC[C@@H](C)O2,-49.16
COc1cc(CN2C[C@@H]3N[C@H](C2)C3c2ccc(-c3ccncc3)cc2)cc(OC)c1 (stereo not given in full),-38.05
C[C@@H]1CN([C@@H](C)CO)C(=O)c2cc(NS(C)(=O)=O)ccc2O[C@@H](C)CCCCO[C@H]1CN(C)Cc1ccc(C(F)(F)F)cc1,-32.94
CO[C@@H](CN(C)S(=O)(=O)c1ccc(Cl)cc1)[C@H](C)CN([C@H](C)CO)S(=O)(=O)c1cccc(Cl)c1,-45.65
Cc1ccc(S(=O)(=O)N(C)C[C@@H]2Oc3ccc(NC(=O)Nc4ccc(F)cc4)cc3CC(=O)N([C@H](C)CO)C[C@@H]2C)cc1,-39.85
O=C1CN(S(=O)(=O)Cc2ccccc2)C[C@H]2[C@H](c3ccc(C#Cc4ccc(F)cc4)cc3)[C@H](CO)N12,-74.7
COc1ccc2c3c([nH]c2c1)[C@@H](CO)N(Cc1ccc(F)cc1)CC31CCN(C)CC1,-34.96
C[C@@H]1CN([C@@H](C)CO)C(=O)Cc2cc(NC(=O)Nc3ccccc3)ccc2O[C@H]1CN(C)CC1CCCCC1,-36.59
C[C@@H]1CCCCO[C@@H](CN(C)Cc2ccc3c(c2)OCO3)[C@@H](C)CN([C@@H](C)CO)C(=O)c2cc(NS(=O)(=O)c3ccc(Cl)cc3)ccc2O1,-56.36
C[C@@H]1CN([C@@H](C)CO)S(=O)(=O)c2ccc(-c3cccc(C#N)c3)cc2O[C@H]1CN(C)C(=O)Nc1ccccc1F,-33.6
N#Cc1cccc(-c2ccc3c(c2)[C@@H]2[C@@H](CCN2S(=O)(=O)c2ccc(F)cc2)[C@@H](CO)N3)c1,-51.84
CCN(C[C@H]1N[C@H](CO)[C@H]1c1ccc(C2=CCCC2)cc1)C(=O)c1cccnc1,-33.32
O=C(Nc1ccc(F)cc1)N1CC(=O)N2[C@H](C1)[C@H](c1ccc(C#Cc3ccc(F)cc3)cc1)[C@@H]2CO,-81.31
N#Cc1ccc(-c2ccc([C@@H]3[C@@H]4CN(S(=O)(=O)c5ccc(-c6ccccc6)cc5)C[C@H]3N4)cc2)cc1,-46.68
COc1ccc(CN2[C@H](CO)[C@H]3c4ccccc4NC[C@H]32)cc1,-83.08
C[C@H]1CCCCO[C@@H](CN(C)Cc2ccccc2)[C@@H](C)CN([C@@H](C)CO)C(=O)c2cc(NC(=O)Cc3ccccc3)ccc2O1,-49.15
C#Cc1ccc([C@H]2C=C(C(=O)N3CCN(Cc4ccc5c(c4)OCO5)CC3)O[C@@H](OCC)[C@@H]2CCCO)cc1,-63.68
CNC[C@H]1Oc2cc(C#Cc3ccc(F)cc3)ccc2S(=O)(=O)N([C@@H](C)CO)C[C@@H]1C,-20.46
N#Cc1cccc(-c2ccc(C3[C@@H]4CN(S(=O)(=O)Cc5ccccc5)C[C@H]3N4)cc2)c1 (stereo not given in full),-44.45
COc1ccc(S(=O)(=O)Nc2cccc3c2O[C@H](CN(C)Cc2ccc(-c4ccccc4)cc2)[C@H](C)CN([C@@H](C)CO)C3=O)cc1,-19.75
CO[C@@H](CN(C)S(=O)(=O)c1ccc(Cl)cc1)[C@H](C)CN([C@@H](C)CO)S(=O)(=O)c1cccc(Cl)c1,-48.3
C[C@@H]1CN([C@H](C)CO)C(=O)c2cc(NC(=O)Cc3ccccc3)ccc2O[C@@H]1CN(C)Cc1ccc(Cl)c(Cl)c1,-64.48
Cc1noc(C)c1S(=O)(=O)Nc1ccc2c(c1)C(=O)N([C@@H](C)CO)C[C@@H](C)[C@H](CN(C)Cc1ccc3c(c1)OCO3)OCCCC[C@H](C)O2,-47.67
COc1ccc(NC(=O)N(C)C[C@@H]2OCCCC[C@@H](C)Oc3ccc(NC(=O)Cc4ccccc4)cc3C(=O)N([C@H](C)CO)C[C@H]2C)cc1,-29.26
CN1CCN(C(=O)C[C@@H]2CC[C@@H]3[C@H](COC[C@H](O)CN3Cc3cccc(-c4ccncc4)c3)O2)CC1,-32.49
CO[C@H]1CN(C)C(=O)c2cc(NC(=O)C3CCCC3)ccc2OC[C@@H](C)N(CCC(F)(F)F)C[C@@H]1C,-27.99
CNC[C@@H]1Oc2cc(C#CCC3CCCC3)ccc2S(=O)(=O)N([C@@H](C)CO)C[C@@H]1C,-35.97
C[C@H]1CN([C@@H](C)CO)S(=O)(=O)c2ccc(C#CC3CC3)cc2O[C@@H]1CN(C)CC1CCOCC1,-36
N#C[C@@H]1[C@@H](c2ccc(C#CC3CCCC3)cc2)[C@H](CO)N1C(=O)c1cccc(F)c1,-48.2
COc1cccc(NC(=O)N(C)C[C@H]2OCc3ccccc3-c3c(n(C)c4ccccc34)C(=O)N([C@@H](C)CO)C[C@@H]2C)c1,-49.06
C[C@@H]1CCCCO[C@H](CN(C)Cc2ccc3c(c2)OCO3)[C@H](C)CN([C@H](C)CO)C(=O)c2cc(NC(=O)CCC(F)(F)F)ccc2O1,-33.87
Cc1noc(C)c1S(=O)(=O)Nc1ccc2c(c1)C(=O)N([C@@H](C)CO)C[C@H](C)[C@@H](CN(C)S(=O)(=O)c1ccc(Cl)cc1)OCCCC[C@@H](C)O2,-36.56
COc1ccc(S(=O)(=O)Nc2ccc3c(c2)C(=O)N([C@H](C)CO)C[C@@H](C)[C@@H](CN(C)Cc2ccc(Cl)c(Cl)c2)O3)cc1,-51.78
CN1c2ccc(-c3ccc(C#N)cc3)cc2[C@@H]2[C@@H](CCN2S(=O)(=O)c2cccc(F)c2)[C@H]1CO,-36.25
COc1ccc2c3c([nH]c2c1)[C@H](CO)N(Cc1cccc(Cl)c1)CC31CCN(C)CC1,-36.29
Cc1noc(C)c1S(=O)(=O)N(C)C[C@H]1Oc2c(NC(=O)c3ccc(-c4nccs4)cc3)cccc2C(=O)N([C@@H](C)CO)C[C@H]1C,-57.3
O=C(C[C@H]1CC[C@H](NC(=O)c2ccccc2)[C@H](CO)O1)Nc1ccc(-c2ccccc2)cc1,-29.45
C[C@@H]1CN([C@H](C)CO)S(=O)(=O)c2ccc(C#Cc3cccc(F)c3)cc2O[C@H]1CN(C)S(=O)(=O)c1cn(C)cn1,-84.86
C[C@@H]1CN([C@H](C)CO)C(=O)c2cc(NC(=O)Cc3ccccc3)ccc2O[C@@H](C)CCCCO[C@H]1CN(C)Cc1ccc(Cl)c(Cl)c1,-72.18
CC(C)CC#Cc1ccc2c(c1)O[C@H](CN(C)Cc1ccccc1F)[C@H](C)CN([C@@H](C)CO)S2(=O)=O,-67.78
CO[C@H]1CN(C)C(=O)c2ccc(NC(=O)c3nc4ccccc4s3)cc2OC[C@@H](C)NC[C@@H]1C,-56.75
C[C@H]1CCCCO[C@H](CN(C)S(=O)(=O)c2ccc(Cl)cc2)[C@@H](C)CN([C@@H](C)CO)C(=O)c2cc(NS(=O)(=O)c3ccccc3)ccc2O1,-20.84
C[C@H](CO)N1C[C@H](C)[C@H](CN(C)S(=O)(=O)c2ccc(F)cc2)OCc2ccccc2-c2c(n(C)c3ccccc23)C1=O,-85.7
C[C@@H]1CCCCO[C@@H](CN(C)Cc2ccccc2)[C@@H](C)CN([C@@H](C)CO)C(=O)c2cc(NC(=O)Nc3ccccc3)ccc2O1,-56.54
Cc1ccc(S(=O)(=O)N(C)C[C@H]2OCCCC[C@H](C)Oc3ccc(NS(=O)(=O)c4cccs4)cc3C(=O)N([C@@H](C)CO)C[C@@H]2C)cc1,-45.15
O=S(=O)(c1ccccc1)N1CCCCN2[C@H](CO)[C@H](c3ccc(C#Cc4cccnc4)cc3)[C@H]2C1,-44
COc1ccc(OC(=O)N(C)C[C@H]2OCc3ccccc3-c3c(n(C)c4ccccc34)C(=O)N([C@H](C)CO)C[C@@H]2C)cc1,-38.62
C[C@@H]1CCCCO[C@H](CN(C)CC2CCCCC2)[C@H](C)CN([C@H](C)CO)C(=O)c2cc(NC(=O)c3ccccc3)ccc2O1,-71.26
CN(C)C(=O)[C@H]1[C@H](CO)[C@H]2Cn3c(cccc3=O)[C@H]2N1C(=O)C1CCC1,-17.92

Repeated from the top, 5 entries:

C[C@@H]1CN([C@H](C)CO)C(=O)c2cc(NS(=O)(=O)c3ccc(F)cc3)ccc2O[C@@H](C)CCCCO[C@H]1CN(C)C(=O)C1CCCCC1 gave activity change (Venus) -33.82%.
Cc1ccc(-c2ccc3c(c2)O[C@H](CN(C)C(=O)Nc2ccc(F)cc2)[C@@H](C)CN([C@H](C)CO)S3(=O)=O)cc1 gave activity change (Venus) -40.44%.
C[C@H]1CCCCO[C@@H](CN(C)Cc2ccccc2)[C@@H](C)CN([C@@H](C)CO)C(=O)c2cc(NC(=O)c3ccncc3)ccc2O1 gave activity change (Venus) -46.1%.
COc1cccc(NC(=O)N(C)C[C@H]2Oc3cc(C#Cc4ccncc4)ccc3S(=O)(=O)N([C@H](C)CO)C[C@H]2C)c1 gave activity change (Venus) -26.36%.
C[C@@H]1CN([C@H](C)CO)S(=O)(=O)c2ccc(-c3cccc(C#N)c3)cc2O[C@@H]1CN(C)C(=O)c1ccccc1 gave activity change (Venus) -30.85%.